Experimental data from article PMC10177080.
No constants are given. Whether binding was seen depends on the method and setting. Binding seen in cells or lysates may run through a third protein. Some entries that bind do so weakly or less than the wild type.

Sequences of proteins named here, by UniProt entry; tags and fusion partners are left off.
UniProt Q9QXS1: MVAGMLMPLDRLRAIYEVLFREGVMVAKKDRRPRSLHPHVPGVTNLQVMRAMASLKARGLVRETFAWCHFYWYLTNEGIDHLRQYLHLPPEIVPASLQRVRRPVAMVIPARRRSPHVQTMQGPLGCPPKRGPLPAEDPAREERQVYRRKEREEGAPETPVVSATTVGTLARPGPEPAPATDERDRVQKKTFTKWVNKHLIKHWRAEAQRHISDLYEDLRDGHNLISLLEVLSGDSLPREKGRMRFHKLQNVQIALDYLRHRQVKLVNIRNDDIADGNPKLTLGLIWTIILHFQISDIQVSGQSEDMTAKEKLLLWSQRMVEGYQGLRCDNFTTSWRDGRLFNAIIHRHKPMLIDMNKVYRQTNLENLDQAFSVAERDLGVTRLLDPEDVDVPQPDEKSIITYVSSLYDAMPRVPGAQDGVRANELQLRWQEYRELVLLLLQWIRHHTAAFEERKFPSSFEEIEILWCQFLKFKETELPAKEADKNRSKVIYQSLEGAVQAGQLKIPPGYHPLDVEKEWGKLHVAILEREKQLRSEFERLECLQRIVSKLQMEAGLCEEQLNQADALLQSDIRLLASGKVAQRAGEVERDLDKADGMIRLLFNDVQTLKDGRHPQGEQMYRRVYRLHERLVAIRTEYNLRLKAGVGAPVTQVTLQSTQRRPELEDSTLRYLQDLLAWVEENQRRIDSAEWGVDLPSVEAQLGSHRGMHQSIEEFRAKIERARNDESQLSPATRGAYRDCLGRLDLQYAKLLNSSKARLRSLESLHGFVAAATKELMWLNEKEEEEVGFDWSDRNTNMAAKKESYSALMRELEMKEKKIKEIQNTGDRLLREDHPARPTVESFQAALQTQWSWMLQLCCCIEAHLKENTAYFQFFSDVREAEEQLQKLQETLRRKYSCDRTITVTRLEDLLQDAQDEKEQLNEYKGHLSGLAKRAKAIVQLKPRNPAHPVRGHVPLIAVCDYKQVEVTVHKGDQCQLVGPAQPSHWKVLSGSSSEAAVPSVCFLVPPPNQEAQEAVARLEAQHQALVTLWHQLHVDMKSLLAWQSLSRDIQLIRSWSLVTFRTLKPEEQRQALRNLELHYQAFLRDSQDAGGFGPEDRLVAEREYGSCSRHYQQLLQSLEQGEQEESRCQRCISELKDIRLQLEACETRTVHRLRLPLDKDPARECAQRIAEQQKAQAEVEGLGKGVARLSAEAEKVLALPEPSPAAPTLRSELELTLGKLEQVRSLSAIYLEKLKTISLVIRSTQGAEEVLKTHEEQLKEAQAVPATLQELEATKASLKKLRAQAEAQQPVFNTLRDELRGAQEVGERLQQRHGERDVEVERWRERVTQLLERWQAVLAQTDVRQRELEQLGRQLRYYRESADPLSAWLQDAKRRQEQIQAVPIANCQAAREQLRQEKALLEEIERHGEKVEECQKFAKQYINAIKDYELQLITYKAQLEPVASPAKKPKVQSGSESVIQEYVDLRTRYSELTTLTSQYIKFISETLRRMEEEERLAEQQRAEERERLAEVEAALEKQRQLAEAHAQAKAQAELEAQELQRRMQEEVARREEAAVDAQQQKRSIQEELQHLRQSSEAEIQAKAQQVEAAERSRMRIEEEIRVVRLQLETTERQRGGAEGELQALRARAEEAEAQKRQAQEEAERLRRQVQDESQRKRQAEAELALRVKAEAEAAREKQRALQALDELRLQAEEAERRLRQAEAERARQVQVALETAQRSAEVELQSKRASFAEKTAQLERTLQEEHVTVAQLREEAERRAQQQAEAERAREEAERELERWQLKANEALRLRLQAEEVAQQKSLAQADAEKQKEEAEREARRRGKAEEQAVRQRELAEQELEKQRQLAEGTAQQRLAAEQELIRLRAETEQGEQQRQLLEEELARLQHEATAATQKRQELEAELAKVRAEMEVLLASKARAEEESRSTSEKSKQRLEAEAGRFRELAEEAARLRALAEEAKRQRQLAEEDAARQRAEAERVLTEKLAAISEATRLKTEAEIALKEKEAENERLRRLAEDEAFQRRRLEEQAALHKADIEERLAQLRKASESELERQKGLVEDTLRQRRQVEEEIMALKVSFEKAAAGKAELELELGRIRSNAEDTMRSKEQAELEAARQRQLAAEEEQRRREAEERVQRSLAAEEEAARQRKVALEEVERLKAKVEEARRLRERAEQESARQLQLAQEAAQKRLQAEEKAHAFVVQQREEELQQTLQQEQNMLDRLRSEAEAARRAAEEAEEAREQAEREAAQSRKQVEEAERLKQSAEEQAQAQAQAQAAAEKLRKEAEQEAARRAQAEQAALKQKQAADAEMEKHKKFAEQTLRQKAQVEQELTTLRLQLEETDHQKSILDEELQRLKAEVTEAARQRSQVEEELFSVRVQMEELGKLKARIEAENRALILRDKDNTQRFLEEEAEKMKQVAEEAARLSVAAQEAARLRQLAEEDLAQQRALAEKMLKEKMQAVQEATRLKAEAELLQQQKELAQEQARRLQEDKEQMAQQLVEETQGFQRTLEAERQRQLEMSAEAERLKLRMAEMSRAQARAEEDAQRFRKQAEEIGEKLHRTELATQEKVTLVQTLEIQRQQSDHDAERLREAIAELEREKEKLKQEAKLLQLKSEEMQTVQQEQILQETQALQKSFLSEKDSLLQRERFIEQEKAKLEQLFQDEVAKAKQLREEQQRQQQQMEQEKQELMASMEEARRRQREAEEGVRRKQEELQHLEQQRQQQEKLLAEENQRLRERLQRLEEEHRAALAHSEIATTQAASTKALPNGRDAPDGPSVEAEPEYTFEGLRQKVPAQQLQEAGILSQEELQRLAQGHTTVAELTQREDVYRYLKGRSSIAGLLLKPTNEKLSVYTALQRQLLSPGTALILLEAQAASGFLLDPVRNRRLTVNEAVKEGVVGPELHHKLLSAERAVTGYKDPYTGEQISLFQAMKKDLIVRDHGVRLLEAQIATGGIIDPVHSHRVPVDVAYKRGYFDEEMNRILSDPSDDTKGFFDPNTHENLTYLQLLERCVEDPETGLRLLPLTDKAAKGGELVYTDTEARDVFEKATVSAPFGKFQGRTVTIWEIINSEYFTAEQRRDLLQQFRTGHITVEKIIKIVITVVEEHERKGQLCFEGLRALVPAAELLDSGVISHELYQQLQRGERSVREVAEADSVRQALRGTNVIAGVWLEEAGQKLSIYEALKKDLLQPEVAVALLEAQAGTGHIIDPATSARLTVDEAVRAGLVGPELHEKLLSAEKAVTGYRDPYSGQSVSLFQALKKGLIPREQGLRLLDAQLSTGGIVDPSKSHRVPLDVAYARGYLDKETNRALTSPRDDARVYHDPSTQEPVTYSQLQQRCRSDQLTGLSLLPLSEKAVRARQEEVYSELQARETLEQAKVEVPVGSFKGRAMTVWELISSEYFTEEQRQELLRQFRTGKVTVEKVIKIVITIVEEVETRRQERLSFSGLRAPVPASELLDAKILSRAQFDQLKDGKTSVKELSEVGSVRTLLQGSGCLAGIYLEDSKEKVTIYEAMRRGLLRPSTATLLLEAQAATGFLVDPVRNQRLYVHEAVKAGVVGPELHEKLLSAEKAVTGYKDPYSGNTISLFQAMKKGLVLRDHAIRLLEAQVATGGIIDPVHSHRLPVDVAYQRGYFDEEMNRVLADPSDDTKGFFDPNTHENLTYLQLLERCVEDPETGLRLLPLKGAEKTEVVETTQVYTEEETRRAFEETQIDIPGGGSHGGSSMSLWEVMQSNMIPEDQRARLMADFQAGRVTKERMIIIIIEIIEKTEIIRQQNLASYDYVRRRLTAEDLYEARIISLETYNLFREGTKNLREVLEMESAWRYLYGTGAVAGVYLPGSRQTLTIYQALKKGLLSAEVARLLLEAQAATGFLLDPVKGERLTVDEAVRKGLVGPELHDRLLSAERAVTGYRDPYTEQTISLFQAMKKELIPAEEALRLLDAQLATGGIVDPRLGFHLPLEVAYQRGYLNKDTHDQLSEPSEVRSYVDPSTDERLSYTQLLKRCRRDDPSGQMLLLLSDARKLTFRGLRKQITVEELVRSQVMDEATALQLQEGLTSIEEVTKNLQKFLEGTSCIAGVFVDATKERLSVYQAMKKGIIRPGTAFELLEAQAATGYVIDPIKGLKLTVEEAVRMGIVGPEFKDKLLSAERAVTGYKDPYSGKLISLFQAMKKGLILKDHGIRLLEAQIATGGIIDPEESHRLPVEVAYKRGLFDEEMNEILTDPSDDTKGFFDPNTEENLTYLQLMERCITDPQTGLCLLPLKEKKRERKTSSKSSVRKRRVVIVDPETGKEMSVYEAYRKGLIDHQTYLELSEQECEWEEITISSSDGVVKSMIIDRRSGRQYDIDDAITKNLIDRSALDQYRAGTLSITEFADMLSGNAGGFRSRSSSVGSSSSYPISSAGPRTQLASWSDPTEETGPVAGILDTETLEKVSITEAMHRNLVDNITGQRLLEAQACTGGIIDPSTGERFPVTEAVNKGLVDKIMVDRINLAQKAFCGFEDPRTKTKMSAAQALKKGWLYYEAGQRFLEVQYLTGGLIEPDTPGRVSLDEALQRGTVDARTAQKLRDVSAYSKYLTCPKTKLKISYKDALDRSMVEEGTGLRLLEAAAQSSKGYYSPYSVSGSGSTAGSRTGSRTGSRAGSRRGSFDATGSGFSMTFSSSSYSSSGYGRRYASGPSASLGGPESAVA

Biological target: plectin, endogenous in myoblasts (mouse (endogenous in myoblasts)) (UniProt Q9QXS1)
Assay: co-IP; lysates of differentiated wild-type myoblasts (20 mM Tris-HCl pH 8.0, 1 mM EDTA, 200 mM NaCl, 0.5% Nonidet P-40); immunoprecipitation with pan-plectin antibodies (rabbit antiserum #9) and protein A/G sepharose beads; immunoblot

B1: synpo2, endogenous in myoblasts (protein, UniProt Q91YE8 1-1087)
chain: MGTGDFICISMTGGAPWGFRLQGGKEEQQPLQVAKIRSQSKASGSGLREGDEVVSINGNPCADLTYPEVIKLMEGITDSLHLLVKRPSSGTSETLDSESETTNHQHLTHEGPMESTTLQIQQATETQSEDFFLAPVQTKVPLTEDQSNAWGYAECPKEEQAPPMLGSQEGHLVEEVILRQKAEAGQPGHVVELQLSLSKERHQCTSGPIVTLQGNDKSTSPDPDWSSQLERTVHINSIPAPEKADTSLTSSTSSGRELRVIQGRDPGGAGLPQVEVILDCSDRLKAEECRLQTGRGCVASPVEGGRSEAPPSLVSFAVSSEGTEHGEDQRSGKDQSRPHKHRARHARLRRSESLSEKQVKEAKSKCKSIALLLTDAPNPNSKGVLMFKKRRRRARKYTLVSYGTGELEREEEEEEDQEAGDKDEISEVAFLGTSESEVDEELLSDVDDNTQVVNFDWDSGLVDIEKRLNRGDKMEMLPDTTGKGALMFAKRRERMEQFTAQNEEEKTGGMAGGGPDALQTDGLRTMTSYQRKEESVRMQSSVSESSFQMGRSLASVPQQNGFSGVSETAGAQRMFPMNRTAKPFLGSMNQPAAPFSPTRSVTSPISDFPAPPPYSAVSPPPEAFSRGVSSPVAGPAQPPPWPQPAPWSQPAFYDSSEQIASRDERIAVPAKRTGILQEAKRRGTTKPMFTFKETKVSPNPELLSLLQNAEGKRGTGGDSGPEEDYLSLGAEACNFMQSSAKQKTPPPVAPKPAVKSPSSSQPVAPVSPVWSPGVAPAQRPAFSTSNPPNPPQVTAVSSIKIAQPAAPPARPASALNLAGPFKGPQAVVVSHNYTPKPSAPTPLVNAAPAGAGGPSNELPGMSGKGAQLFAKRQSRMEKYVVDSDTVQAHTVRAQSPTPSLPASWKYSSNVRAPPPVAYNPIHSPSYPLAAIKSQPPGAQASKTSKKKGKKPLNTLDVMKHQPYQLNASLFTFQPPDSKDGLPQKSTVKVSSAPAMKQALPPRQANVGSPTNAQASSVYSVPAYTSQPNFFAAEATSPVSASPVPVSVPTSPKQESTSTSYFVAPRPKFSAKKSGVTVQVWKPSVVEE
B1 was tested, and the binding was “binds”.
